Results are given in words; binding and its absence hold for the method and conditions named. Some binding calls cover weakened binding; strength is not graded here.
Experiments:
[1] = molecular target: Mutant Human HTT Exon 1 48Q (GST) (human); experiment: HTT sandwich ELISA
[2] = molecular target: Mutant Human HTT Exon 1 48Q (GST) (human); experiment: BLI (Octet), Mutant HTT exon1 48Q on GST biosensor
[3] = molecular target: biotinylated … peptide; experiment: BLI (Octet), biotinylated peptide on streptavidin biosensor
[4] = molecular target: Murine HTT antigen (murine); experiment: direct ELISA on coated murine HTT antigen

Measured: binding

B1: ATL_0006375 (antibody, V domains shown)
VH: EVQLVESGGGLVKPGGSLRLSCAASGFTFNKAWMSWVRQAPGKGLEWVGRIKSGIDAGTTDYAAPVKGRFTISRDDSKNTLYLQMNSLKTEDTAVYYCVPPPYYYYYGLDVWGQGTTVTVSS
VL: QSALTQPRSVSGSPGQSVTISCTGTSSDVGSYNLVSWYQQHPGKAPKLMIYEVNKRPSGVPDRFSGSKSGATASLTISGLQAEDEADYYCVSYGGTENVFGTGTKVTVL
binds: [1] | [2] | [3]

B2: ATL_0006378 (antibody, V domains shown)
VH: EVQLVESGGGLVKPGGSLRLSCAASGFTFNKAWMSWVRQAPGKGLEWVGRIKSGIDAGTTDYAAPVKGRFTISRDDSKNTLYLQMNSLKTEDTAVYYCVPSPYYYYYGLDVWGQGTTVTVSS
VL: QSALTQPRSVSGSPGQSVTISCTGTSSDVGSYNLVSWYQQHPGKAPKLMIYEVNKRPSGVPDRFSGSKSGATASLTISGLQAEDEADYYCVSYGGTENVFGTGTKVTVL
binds: [1] | [2] | [3]

B3: ATL_0006376 (antibody, V domains shown)
VH: EVQLVESGGGLVKPGGSLRLSCAASGFTFNKAWMSWVRQAPGKGLEWVGRIKSGIDAGTTDYAAPVKGRFTISRDDSKNTLYLQMNSLKTEDTAVYYCVPPPFYYYYGLDVWGQGTTVTVSS
VL: QSALTQPRSVSGSPGQSVTISCTGTSSDVGSYNLVSWYQQHPGKAPKLMIYEVNKRPSGVPDRFSGSKSGATASLTISGLQAEDEADYYCVSYGGTENVFGTGTKVTVL
binds: [1] | [4] | [2] | [3]

B4: ATL_0006377 (antibody, V domains shown)
VH: EVQLVESGGGLVKPGGSLRLSCAASGFTFNKAWMSWVRQAPGKGLEWVGRIKSGIDAGTTDYAAPVKGRFTISRDDSKNTLYLQMNSLKTEDTAVYYCVPSPYYYYYGLDVWGQGTTVTVSS
VL: QSALTQPRSVSGSPGQSVTISCTGTSSDVGSYNLVSWYQQHPGKAPKLMIYEVNKRPSGVPDRFSGSKSGATASLTISGLQAEDEADYYCVSYAGTANVFGTGTKVTVL
binds: [1] | [4] | [2] | [3]

From patent US20260209320A1
